Source: article PMC3781154

How the values were obtained:
His-ΔN-ZNF395 del1-114 [1] = molecular target: T1, His-ΔN-ZNF395 del1-114 (UniProt Q9H8N7); test: EMSA; conditions: Native PAA gel shift, 200 pg 32P-labeled oligonucleotide, 250-fold excess competitor; recombinant protein; residues 115-513; protein details: His; label: 32P (gamma-ATP) or unlabeled as competitor
T1 sequence (looked up): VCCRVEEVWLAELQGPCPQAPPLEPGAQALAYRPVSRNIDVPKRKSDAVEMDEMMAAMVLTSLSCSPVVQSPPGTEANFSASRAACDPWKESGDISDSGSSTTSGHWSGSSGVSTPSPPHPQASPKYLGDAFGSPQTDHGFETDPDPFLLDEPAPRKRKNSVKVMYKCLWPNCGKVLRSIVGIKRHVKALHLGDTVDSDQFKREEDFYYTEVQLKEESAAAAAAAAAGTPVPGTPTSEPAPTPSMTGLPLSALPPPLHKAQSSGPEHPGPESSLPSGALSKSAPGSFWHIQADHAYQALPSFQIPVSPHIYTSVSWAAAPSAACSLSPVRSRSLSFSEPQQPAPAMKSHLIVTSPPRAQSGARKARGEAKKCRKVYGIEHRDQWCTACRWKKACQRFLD

FLAG-ZNF395 [2] = molecular target: T2, FLAG-ZNF395 (UniProt Q9H8N7); test: competition with a labelled probe; conditions: nuclear extract +Dox, labeled ISRE-wt, 250-fold excess unlabeled ISRE-mut, putative ZNF395 complex; protein in an extract; protein details: FLAG; label: 32P (gamma-ATP) or unlabeled as competitor
T2 sequence (looked up, limits assumed): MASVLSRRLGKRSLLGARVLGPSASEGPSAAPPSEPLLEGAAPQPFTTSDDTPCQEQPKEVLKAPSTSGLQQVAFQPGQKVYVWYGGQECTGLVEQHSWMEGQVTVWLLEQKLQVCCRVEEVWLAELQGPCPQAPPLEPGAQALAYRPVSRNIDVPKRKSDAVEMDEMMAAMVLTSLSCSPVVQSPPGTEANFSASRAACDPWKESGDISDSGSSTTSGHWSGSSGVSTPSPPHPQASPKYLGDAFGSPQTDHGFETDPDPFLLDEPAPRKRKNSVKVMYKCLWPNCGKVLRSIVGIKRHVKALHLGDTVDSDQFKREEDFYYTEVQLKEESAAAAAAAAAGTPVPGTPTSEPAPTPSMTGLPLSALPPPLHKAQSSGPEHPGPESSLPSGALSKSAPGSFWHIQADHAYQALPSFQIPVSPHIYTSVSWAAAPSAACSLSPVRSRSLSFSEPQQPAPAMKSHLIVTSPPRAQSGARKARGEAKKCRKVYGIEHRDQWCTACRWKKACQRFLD

His-ΔN-ZNF395 del1-114 [3] = molecular target: T1, His-ΔN-ZNF395 del1-114; test: competition with a labelled probe; conditions: recombinant protein, residues 115-513, protein details: His, label: 32P (gamma-ATP) or unlabeled as competitor
FLAG-ZNF395 [4] = molecular target: T2, FLAG-ZNF395; test: EMSA; conditions: nuclear extract +Dox, putative ZNF395 complex (might represent ZNF395); Native PAA gel shift, 200 pg 32P-labeled oligonucleotide, 250-fold excess competitor; protein in an extract; protein details: FLAG; label: 32P (gamma-ATP) or unlabeled as competitor

Measured: binding result

TTTAGTGTCACTTTCCCCTGTCGGTTTCCCTAGGT (double strand) [ISRE-mut114/101]
binds: His-ΔN-ZNF395 del1-114 [1] | FLAG-ZNF395 [2] | His-ΔN-ZNF395 del1-114 [3]; 250-fold excess unlabeled ISRE-mut

TTTAGTTTCACTTTCCCCTTTCGGTTTCCCTAGGT (double strand) [ISRE-wt (ISG56 ISRE I/II)]
binds: FLAG-ZNF395 [4] | His-ΔN-ZNF395 del1-114 [1] | His-ΔN-ZNF395 del1-114 [3]; 250-fold excess unlabeled ISRE-wt, outcome not stated separately

The exact form of at least one protein or probe is not confirmed. For part of these data: Where cells or extracts were used, other partners may take part. Tags and fusion partners may be left off the protein sequences shown. For part of these data: At least one verdict was read from the data and is not stated in words by the source.
